{"source": "PubChem BioAssay AID540256", "about": "(National Center for Advancing Translational Sciences (NCATS), 2011)", "note": "About 3,700 (1.2%) of roughly 300,000 compounds were called active. This list was built around the results that the source calls inconclusive (neither active nor inactive); the mix of calls is not that of the screen. Calls follow the shape of the full dose curve; tested in HEK293 cells. A potency beside an inconclusive call is a rough fit, not a confirmed value. % is scaled to controls: 0 for no effect and ±100 for the full control effect; potency is read from the fitted curve at half-maximal effect.", "data": [{"test": "qHTS for Inhibitors of binding or entry into cells for Lassa Virus; also: nearly all actives have a fitted effect of over 50% in size", "conditions": "Lassa virus pseudotype entry inhibition, cell reporter; activity change, negative = inhibition: at 37.9 µM (top of the series) unless noted", "values": [{"compound": "O=C(Cc1ccccc1)NNC(=O)Nc1ccc(Cl)c(Cl)c1", "Potency": "inconclusive: 11.2 µM [inhibitor, partial curve, poor fit]"}, {"compound": "Cc1nnc(SCC(=O)Nc2ncc3c(n2)CCCC3=O)s1", "activity change, negative = inhibition": "inactive: 6.21%"}, {"compound": "CN1CCN(C(=O)c2cnn(-c3ccc(F)cc3F)c2C2CCN(C(=O)OC(C)(C)C)CC2)CC1", "Potency": "inconclusive: 3.16 µM [inhibitor, full curve]"}, {"compound": "CC1(C)CC(=O)C2=C(C1)OC(c1ccc(O)cc1)C(C#N)=C2N", "note": "(stereo not drawn)", "Potency": "inconclusive: 10 µM [activator, single point]"}, {"compound": "Cc1cc(C)cc(N(CC(=O)NCCc2ccc(Cl)cc2)S(=O)(=O)c2c(C)noc2C)c1", "activity change, negative = inhibition": "inactive: -1.45% [at 46.1 µM]"}, {"compound": "C=C(C)CNC(=S)N/N=C/c1ccc(N2CCOCC2)cc1", "Potency": "inconclusive: 11.2 µM [inhibitor, partial curve, poor fit]"}, {"compound": "O=C(Nc1cccc(S(=O)(=O)C(F)F)c1)c1ccc(Cl)c(S(=O)(=O)N2CCOCC2)c1", "Potency": "inconclusive: 35.5 µM [inhibitor, single point]"}, {"compound": "O=C(Nc1ccccc1)c1ccc2c(c1)OCCCO2", "Potency": "active: 3.16 µM"}, {"compound": "Cc1cc(C)cc(N(C(=O)c2csnn2)C(C(=O)NC2CCCCC2)c2cccnc2)c1", "note": "(stereo not drawn)", "Potency": "inconclusive: 6.31 µM [activator, single point]"}, {"compound": "Cc1ncsc1CCC(=O)N1CCCC(Nc2ccc(C(C)C)cc2)C1", "note": "(stereo not drawn)", "activity change, negative = inhibition": "inactive: -16.3%"}, {"compound": "CCc1ccc(-c2cc(C(=O)N/N=C/c3c[nH]c4ccccc34)[nH]n2)cc1", "Potency": "inconclusive: 5.62 µM [inhibitor, full curve]"}, {"compound": "COc1ccc(C2C(C#N)=C(C)NC3=C2C(=O)CC(C)(C)C3)c(OC)c1", "note": "(stereo not drawn)", "activity change, negative = inhibition": "inactive: 2.53%"}, {"compound": "CC1CCN(C(=O)Cn2c(=O)n(CCCC(=O)NCc3ccco3)c(=O)c3sccc32)CC1", "Potency": "inconclusive: 35.5 µM [inhibitor, single point]"}, {"compound": "O=C(COC(=O)CCC(=O)N1CCOCC1)Nc1ccc(Br)cc1Br", "Potency": "inconclusive: 35.5 µM [activator, single point]"}, {"compound": "O=C(Nc1cccc([N+](=O)[O-])c1)c1[nH]ncc1Cl", "Potency": "inconclusive: 35.5 µM [inhibitor, single point]"}, {"compound": "CCOc1ccc(NC(=O)CSCC(=O)O)cc1", "activity change, negative = inhibition": "inactive: 3.03%"}, {"compound": "CC(/C=C/c1ccccc1)=N/NC(=O)c1cc([N+](=O)[O-])cc([N+](=O)[O-])c1", "Potency": "inconclusive: 2.82 µM [inhibitor, partial curve, poor fit]"}, {"compound": "O=C(CCc1ccc(S(=O)(=O)N2CCOCC2)cc1)Nc1ccc2ccccc2c1", "Potency": "inconclusive: 2.06 µM [inhibitor, full curve, poor fit]"}, {"compound": "COc1cccc(N2CCN(C(=O)c3ccc(CS(=O)Cc4ccc(C)cc4)o3)CC2)c1", "note": "(stereo not drawn)", "Potency": "inconclusive: 15.8 µM [inhibitor, single point]"}, {"compound": "COc1ccc(CNC(=O)CSc2nnc(C)c3c(C)n(-c4ccccc4)nc23)c(OC)c1", "Potency": "inconclusive: 12.6 µM [inhibitor, single point]"}, {"compound": "CC(=O)c1ccc2c(c1)CC1(C2)Cc2cc3c(cc2C1)C(=O)CC3", "note": "(stereo not drawn)", "Potency": "inconclusive: 0.708 µM [inhibitor, partial curve, poor fit]"}, {"compound": "Cc1csc(=O)n1CCC(=O)OCC(=O)Nc1cc(Cl)ccc1[N+](=O)[O-]", "activity change, negative = inhibition": "inactive: 29.3%"}, {"compound": "O=C1c2ccccc2CCC12N=NCC2c1ccccc1", "note": "(stereo not drawn)", "Potency": "inconclusive: 1.83 µM [activator, partial curve, poor fit]"}, {"compound": "CC1CC(C)CN(C(=O)Cn2nnc(-c3ccccc3)n2)C1", "note": "(stereo not drawn)", "activity change, negative = inhibition": "inactive: -4.1% [at 46.1 µM]"}, {"compound": "Cc1ccccc1NC(=O)Cn1nc(-c2ccccc2)nc(Cc2ccccc2)c1=O", "Potency": "inconclusive: 31.6 µM [activator, single point]"}, {"compound": "Cc1cccc(N=N/C(=C\\O)C(=O)c2ccc(Br)cc2)c1", "Potency": "active: 5.62 µM"}, {"compound": "O=C(CCC(=O)N(CC(=O)NC1CCCC1)Cc1ccccc1)Nc1nccs1", "activity change, negative = inhibition": "inactive: 19.1% [at 46.1 µM]"}, {"compound": "CC(C)CNS(=O)(=O)c1ccc(CCC(=O)NCc2ccc(Cl)cc2)cc1", "Potency": "inconclusive: 11.2 µM [inhibitor, partial curve, poor fit]"}, {"compound": "CCOc1ccc(NS(=O)(=O)c2ccc(C(=O)N3CCCCC3)cc2)cc1", "Potency": "inconclusive: 4.47 µM [inhibitor, partial curve]"}, {"compound": "Cc1ccc(CNS(=O)(=O)c2cnc(N)nc2)cc1", "activity change, negative = inhibition": "inactive: -3.68% [at 46.1 µM]"}, {"compound": "COc1ccc(C(CNc2ccc(S(=O)(=O)N3CCCC3)cc2[N+](=O)[O-])N2CCCC2)cc1", "note": "(stereo not drawn)", "Potency": "inconclusive: 35.5 µM [inhibitor, single point]"}, {"compound": "O=C(CSc1nnc(-c2ccncc2)o1)NCc1ccccc1Cl", "activity change, negative = inhibition": "inactive: -2%"}, {"compound": "Cc1cccc(NC(=O)COc2ccc(Br)cc2C)n1", "Potency": "inconclusive: 5.62 µM [activator, single point]"}, {"compound": "COc1ccccc1NS(=O)(=O)c1cccc(NS(=O)(=O)c2ccc(Cl)c(C(=O)O)c2)c1", "activity change, negative = inhibition": "inactive: 2.5%"}, {"compound": "Oc1ccc(-c2nc3ccc(Cl)cn3c2Nc2ccc(Cl)cc2)cc1", "Potency": "inconclusive: 10 µM [inhibitor, single point]"}, {"compound": "COc1cc(C(=O)NNC(=S)NC(=O)c2ccc(Cl)cc2)cc(OC)c1OC", "Potency": "inconclusive: 29.1 µM [inhibitor, single point]"}, {"compound": "O=C(CCN1C(=O)/C(=C/c2ccccc2F)SC1=S)N[C@@H](CO)Cc1ccccc1", "Potency": "inconclusive: 14.1 µM [inhibitor, single point]"}, {"compound": "O=C(c1cc2c(Cl)nc3ccccc3c2s1)N1CCCCC1", "activity change, negative = inhibition": "inactive: 0.0635% [at 46.1 µM]"}, {"compound": "O=C(CN(C(=O)CSc1nnc(COc2ccccc2)o1)c1ccc(F)cc1)NC1CCCC1", "Potency": "inconclusive: 29.1 µM [inhibitor, single point]"}, {"compound": "COc1ccc2nc(C)cc(NCc3cccc(C(F)(F)F)c3)c2c1", "Potency": "inconclusive: 35.5 µM [inhibitor, single point]"}, {"compound": "Cc1[nH]c2ccc(-c3n[nH]c(=S)n3Cc3ccccc3)cc2c1C", "Potency": "inconclusive: 3.66 µM [inhibitor, partial curve]"}, {"compound": "Cc1ccc(S(=O)(=O)n2nc(OC(=O)c3ccccc3F)cc2N)cc1", "activity change, negative = inhibition": "inactive: -8.53%"}, {"compound": "COc1ccc(S(=O)(=O)NCc2nc(-c3ccccc3)no2)cc1", "activity change, negative = inhibition": "inactive: 4.42% [at 46.1 µM]"}, {"compound": "COc1ccc(CCN2CC(C(=O)O)CC2=O)cc1OC", "note": "(stereo not drawn)", "Potency": "inconclusive: 0.259 µM [activator, single point]"}, {"compound": "COc1cc(C(=O)N/N=C/c2ccc(OC(=O)N3CCOCC3)cc2)cc(OC)c1OC", "Potency": "inconclusive: 25.9 µM [inhibitor, single point]"}, {"compound": "CC(=O)c1cccc(NC(=O)CSc2ncc3c(n2)-c2cc(Cl)ccc2N(Cc2ccccc2)S3(=O)=O)c1", "Potency": "inconclusive: 7.94 µM [inhibitor, partial curve]"}, {"compound": "CC1c2ccccc2N(S(=O)(=O)c2ccccc2)C1C", "note": "(stereo not drawn)", "Potency": "inconclusive: 0.562 µM [inhibitor, full curve, poor fit]"}, {"compound": "Cc1cc2sc(NC(=O)c3ccco3)nc2cc1Cl", "Potency": "inconclusive: 8.91 µM [inhibitor, partial curve, poor fit]"}, {"compound": "Cc1cc(C)n(-c2nnc3c4ccccc4n(C)c3n2)n1", "activity change, negative = inhibition": "inactive: -0.35% [at 46.1 µM]"}, {"compound": "CCOc1cccc(CN2CCC(n3nccc3NC(=O)c3ccc4c(c3)OCO4)CC2)c1", "activity change, negative = inhibition": "inactive: -0.235%"}, {"compound": "CCCCC[C@H](O)/C=C/[C@@H]1[C@@H](C/C=C\\CCCC(=O)O)[C@@H](O)C[C@H]1O", "Potency": "inconclusive: 0.0046 µM [inhibitor, full curve, poor fit]"}, {"compound": "Cn1cccc1-c1cc(C(=O)N/N=C/c2ccc(F)cc2)[nH]n1", "Potency": "inconclusive: 4.47 µM [activator, full curve]"}, {"compound": "COc1ccc(Br)cc1Cn1nnc(C(=O)Nc2cccc(SC)c2)c1N", "Potency": "inconclusive: 10 µM [inhibitor, partial curve]"}, {"compound": "COc1ccc(C(CNC(=O)c2oc3c(Cl)cccc3c2C)N2CCCC2)cc1", "note": "(stereo not drawn)", "Potency": "inconclusive: 25.1 µM [inhibitor, single point]"}, {"compound": "Cc1ccc(C(=O)O/N=C(\\N)c2ccc(Br)cc2)cc1", "Potency": "inconclusive: 35.5 µM [inhibitor, single point]"}, {"compound": "COc1ccc(S(=O)(=O)N(CC(=O)N/N=C/c2cccs2)c2ccc(C)cc2)cc1OC", "Potency": "inconclusive: 10 µM [inhibitor, partial curve, poor fit]"}, {"compound": "CCc1ccc(C(=O)N2CCCC2)s1", "activity change, negative = inhibition": "inactive: 5.36%"}, {"compound": "COc1ccccc1NC(=O)CSc1nnnn1-c1ccc(C(=O)O)cc1", "activity change, negative = inhibition": "inactive: 13.8%"}, {"compound": "Cc1cc(/C=C2\\SC(=Nc3ccc(F)cc3)NC2=O)c(C)n1-c1ccc(S(N)(=O)=O)cc1", "Potency": "inconclusive: 12.6 µM [inhibitor, partial curve, poor fit]"}, {"compound": "COc1ccccc1CCNC1CCC(C(C)(C)C)CC1", "note": "(stereo not drawn)", "Potency": "inconclusive: 23.1 µM [inhibitor, partial curve, poor fit]"}, {"compound": "CCOc1ccc(CNC(=O)CCc2c(C)nn(-c3ccc(N4CCCCC4)nn3)c2C)cc1", "activity change, negative = inhibition": "inactive: -7.82% [at 46.1 µM]"}, {"compound": "O=C(CCc1ccccc1)Nc1ccccc1", "Potency": "inconclusive: 3.55 µM [activator, partial curve, poor fit]"}, {"compound": "C=CCN(CC=C)C(=O)c1cccc(OC2CCN(S(=O)(=O)N(C)C)CC2)c1", "Potency": "inconclusive: 4.47 µM [inhibitor, full curve, poor fit]"}, {"compound": "CN(Cc1nccn1C)C(=O)c1cc(COc2ccc3ncccc3c2)on1", "activity change, negative = inhibition": "inactive: -16.2% [at 46.1 µM]"}, {"compound": "CCc1ccc(/C=C\\C(=O)N2CCCC2)cc1", "activity change, negative = inhibition": "inactive: 14.9% [at 46.1 µM]"}, {"compound": "C#Cc1ccc(CN2CCN(CCCc3ccccc3)C(CCO)C2)cc1", "note": "(stereo not drawn)", "Potency": "inconclusive: 2.24 µM [inhibitor, partial curve, poor fit]"}, {"compound": "O=C(C1CCC(Cn2c(=S)[nH]c3ccccc3c2=O)CC1)N1CCN(c2ccccc2)CC1", "note": "(stereo not drawn)", "activity change, negative = inhibition": "inactive: 3.98%"}, {"compound": "CCOc1ccc(CC(=NCCc2ccccc2)C2=C(O)CC(C)(C)CC2=O)cc1OCC", "Potency": "inconclusive: 16.4 µM [inhibitor, partial curve, poor fit]"}]}]}
